The source of these data is article PMC5472185.

These are yes or no findings as the source states them, for the method shown. Binding calls can cover weak binding; strength is not graded here. Where a sequence is shown, tags or fusion partners need not be part of it.

In the experiment the target is PfCyc1 two-hybrid bait (Plasmodium falciparum). Kind of experiment: two-hybrid; pGBKT7 bait in PJ69-4alpha mated with pGADT7 prey in PJ69-4a; diploids plated onto medium lacking leucine, tryptophan, histidine and adenine.

B1: PfMRK-AD (protein, UniProt P90584 1-324)
chain: MENNSTERYIFKPNFLGEGSYGKVYKAYDTILKKEVAIKKMKLNEISNYIDDCGINFVLLREIKIMKEIKHKNIMSALDLYCEKDYINLVMEIMDYDLSKIINRKIFLTDSQKKCILLQILNGLNVLHKYYFMHRDLSPANIFINKKGEVKLADFGLCTKYGYDMYSDKLFRDKYKKNLNLTSKVVTLWYRAPELLLGSNKYNSSIDMWSFGCIFAELLLQKALFPGENEIDQLGKIFFLLGTPNENNWPEALCLPLYTEFTKATKKDFKTYFKIDDDDCIDLLTSFLKLNAHERISAEDAMKHRYFFNDPLPCDISQLPFNDL
As to B1, the binding result was “binds”.
